Assay results taken from paper PMC8202330, “Phosphorylation of the LIR Domain of SCOC Modulates ATG8 Binding Affinity and Specificity” (Journal of Molecular Biology, 2021).
Results are given in words; binding and its absence hold for the method and conditions named. For some assays here: Binding seen in cells or lysates may run through a third protein. Some results given as binding are weak or reduced against the parent protein; the word gives no strength. For some assays here: Where a sequence is shown, tags or fusion partners need not be part of it.

By UniProt entry, the sequences of proteins in these tests, tags left out. Where a name states a change or a piece, a line headed by the entry shows the natural chain unless it says otherwise. Chains listed by the source or under a name are the forms on record and can include a tag or linker. Residues count along the entry.
MYC-SCOC (isoform 3) S12E/S18E (Q9UIL1-3, form named): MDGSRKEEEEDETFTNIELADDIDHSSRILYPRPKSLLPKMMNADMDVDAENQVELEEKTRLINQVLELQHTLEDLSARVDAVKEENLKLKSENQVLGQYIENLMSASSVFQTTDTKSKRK
GFP-SCOC (isoform 3) wild-type, in vitro translated (Q9UIL1-3, form named): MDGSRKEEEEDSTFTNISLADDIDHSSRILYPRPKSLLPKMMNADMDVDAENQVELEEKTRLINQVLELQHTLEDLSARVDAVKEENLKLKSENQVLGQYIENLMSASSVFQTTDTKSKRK
MYC-SCOC (isoform 3) S18E (Q9UIL1-3, form named): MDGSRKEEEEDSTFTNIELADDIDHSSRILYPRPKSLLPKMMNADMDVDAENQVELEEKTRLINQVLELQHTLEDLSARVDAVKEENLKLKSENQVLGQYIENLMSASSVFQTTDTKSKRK
MYC-SCOC (isoform 3) S12E/T13E/T15E/S18E (Q9UIL1-3, form named): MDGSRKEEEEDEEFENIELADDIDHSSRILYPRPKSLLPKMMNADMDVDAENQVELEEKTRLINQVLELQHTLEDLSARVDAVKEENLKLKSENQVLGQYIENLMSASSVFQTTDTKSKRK
UniProt P60520: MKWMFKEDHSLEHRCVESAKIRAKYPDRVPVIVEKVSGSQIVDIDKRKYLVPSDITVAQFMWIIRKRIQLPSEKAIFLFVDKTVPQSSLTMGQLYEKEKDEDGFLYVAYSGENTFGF
UniProt Q9BXW4, residues 1-126: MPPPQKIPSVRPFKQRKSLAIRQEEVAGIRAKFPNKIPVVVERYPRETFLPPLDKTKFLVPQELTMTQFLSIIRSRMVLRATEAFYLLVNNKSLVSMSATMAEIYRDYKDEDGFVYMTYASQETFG
UniProt O95166: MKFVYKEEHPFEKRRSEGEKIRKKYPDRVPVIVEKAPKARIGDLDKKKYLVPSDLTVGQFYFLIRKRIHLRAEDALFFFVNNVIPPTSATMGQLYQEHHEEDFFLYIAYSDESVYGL
UniProt Q8TDY2: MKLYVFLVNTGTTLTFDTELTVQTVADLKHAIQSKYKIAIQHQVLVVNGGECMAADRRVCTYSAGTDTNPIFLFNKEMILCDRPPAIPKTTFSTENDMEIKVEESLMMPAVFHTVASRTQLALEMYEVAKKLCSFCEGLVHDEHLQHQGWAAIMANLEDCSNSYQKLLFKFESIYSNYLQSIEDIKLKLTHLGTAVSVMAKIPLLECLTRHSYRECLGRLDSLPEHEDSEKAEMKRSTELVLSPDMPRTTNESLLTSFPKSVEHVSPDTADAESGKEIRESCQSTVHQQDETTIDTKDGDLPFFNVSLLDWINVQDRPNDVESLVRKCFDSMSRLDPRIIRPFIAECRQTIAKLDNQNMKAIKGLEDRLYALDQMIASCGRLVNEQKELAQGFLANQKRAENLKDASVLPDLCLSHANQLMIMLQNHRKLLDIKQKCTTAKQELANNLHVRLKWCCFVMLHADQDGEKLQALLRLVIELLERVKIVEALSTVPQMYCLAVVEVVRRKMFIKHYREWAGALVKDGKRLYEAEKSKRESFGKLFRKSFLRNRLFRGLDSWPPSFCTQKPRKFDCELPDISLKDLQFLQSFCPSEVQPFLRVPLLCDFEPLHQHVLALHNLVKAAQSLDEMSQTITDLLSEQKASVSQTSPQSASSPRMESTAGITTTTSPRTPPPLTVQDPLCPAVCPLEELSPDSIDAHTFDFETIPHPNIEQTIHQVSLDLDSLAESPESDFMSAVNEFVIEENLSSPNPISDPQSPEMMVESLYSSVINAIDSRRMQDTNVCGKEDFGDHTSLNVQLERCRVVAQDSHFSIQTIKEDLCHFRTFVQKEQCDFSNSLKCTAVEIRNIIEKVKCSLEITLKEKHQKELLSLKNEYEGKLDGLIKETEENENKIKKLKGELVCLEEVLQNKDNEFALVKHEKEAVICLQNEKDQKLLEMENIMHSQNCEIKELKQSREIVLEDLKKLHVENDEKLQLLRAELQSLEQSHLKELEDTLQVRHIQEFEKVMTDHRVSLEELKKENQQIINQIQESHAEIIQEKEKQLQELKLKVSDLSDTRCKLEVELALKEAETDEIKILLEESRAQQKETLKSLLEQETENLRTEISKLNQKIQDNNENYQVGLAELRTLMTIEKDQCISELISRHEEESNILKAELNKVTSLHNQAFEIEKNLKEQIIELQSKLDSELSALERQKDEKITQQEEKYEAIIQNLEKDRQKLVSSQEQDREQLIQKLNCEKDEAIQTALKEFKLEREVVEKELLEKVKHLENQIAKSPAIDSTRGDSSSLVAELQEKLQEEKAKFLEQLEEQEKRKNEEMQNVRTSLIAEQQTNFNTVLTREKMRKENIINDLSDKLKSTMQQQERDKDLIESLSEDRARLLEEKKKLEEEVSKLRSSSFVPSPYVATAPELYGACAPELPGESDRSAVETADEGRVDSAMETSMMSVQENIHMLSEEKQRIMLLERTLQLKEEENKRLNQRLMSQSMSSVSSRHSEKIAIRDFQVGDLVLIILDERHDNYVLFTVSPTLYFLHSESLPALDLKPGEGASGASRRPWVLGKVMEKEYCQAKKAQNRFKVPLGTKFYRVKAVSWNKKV

Columns and labels:
GFP-LC3A = GFP-LC3A (UniProt Q9H492); assay: co-IP; GFP-Trap IP; MYC-SCOC and GFP-ATG8 overexpressed separately in HEK293A, lysates mixed before the IP; TNTE buffer (0.5% Triton X-100), overnight at 4 °C
[1] = target: SCOC pS18 LIR peptide (human); assay: BLI; biotinylated LIR peptide immobilized on streptavidin biosensor, ATG8 in solution; 25 mM Tris pH 7.5, 150 mM NaCl, 0.5 mM TCEP, 0.1% Tween20, 1 mg/ml BSA; 25 °C; Kd from response against concentration; both purified
[2] = target: T1, SCOC pT13 LIR peptide (human); assay: as above
T1 sequence (peptide, phosphothreonine at 13; biotin-linker on the N-terminus; C-terminal amide): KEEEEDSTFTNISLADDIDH

[3] = target: SCOC pT15 LIR peptide (human); assay: as above
[4] = target: SCOC aa 11–25/pS12 LIR peptide (human); assay: as above
[5] = target: SCOC pS12 LIR peptide (human); assay: as above
FEZ1-GFP = target: T2, FEZ1-GFP (UniProt Q99689); assay: co-IP; GFP-Trap IP of GFP-tagged proteins from HEK293A cells in full medium or starved 2 h in EBSS; blots for endogenous ULK1, ATG13, FIP200; TNTE buffer A (1% Triton X-100)
T2 sequence: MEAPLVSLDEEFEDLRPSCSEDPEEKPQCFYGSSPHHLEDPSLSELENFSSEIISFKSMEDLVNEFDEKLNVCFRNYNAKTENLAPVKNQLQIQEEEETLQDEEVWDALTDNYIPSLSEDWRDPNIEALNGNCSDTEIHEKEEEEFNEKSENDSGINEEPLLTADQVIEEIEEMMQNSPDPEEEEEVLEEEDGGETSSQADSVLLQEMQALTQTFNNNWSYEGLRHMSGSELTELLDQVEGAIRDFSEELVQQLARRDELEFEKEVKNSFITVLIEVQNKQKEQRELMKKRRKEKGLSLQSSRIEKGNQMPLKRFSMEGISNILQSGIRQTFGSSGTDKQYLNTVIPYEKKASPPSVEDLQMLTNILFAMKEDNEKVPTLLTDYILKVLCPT

[6] = target: GFP-SCOC (isoform 3), in HEK293A (human) (UniProt Q9UIL1); assay: as above
[7] = target: T3, GFP-FEZ2 (human (cDNA from a HeLa library)) (UniProt Q9UHY8); assay: as above
T3 sequence: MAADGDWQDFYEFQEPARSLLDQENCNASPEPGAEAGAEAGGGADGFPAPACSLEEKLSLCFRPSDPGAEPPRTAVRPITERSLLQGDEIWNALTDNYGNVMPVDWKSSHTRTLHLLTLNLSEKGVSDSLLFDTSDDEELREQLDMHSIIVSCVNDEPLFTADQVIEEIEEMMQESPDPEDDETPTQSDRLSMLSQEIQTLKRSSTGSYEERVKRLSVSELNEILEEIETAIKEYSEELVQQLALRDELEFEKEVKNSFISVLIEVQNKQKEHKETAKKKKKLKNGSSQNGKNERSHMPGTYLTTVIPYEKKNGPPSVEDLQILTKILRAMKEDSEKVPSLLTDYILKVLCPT

GST-GABARAPL2 (human) = GST-GABARAPL2 (human) (UniProt P60520); assay: pull-down; GST-ATG8 proteins immobilized on Glutathione Sepharose beads; in vitro translated 35S-labelled GFP-SCOC in NET-N buffer (20 mM Tris-HCl pH 8.0, 100 mM NaCl, 1 mM EDTA, 0.5% Nonidet P-40); autoradiography; only the target purified
GST-LC3A (human) = GST-LC3A (human) (UniProt Q9H492); assay: as above
GST-LC3C (human) = GST-LC3C (human) (UniProt Q9BXW4); assay: as above

Substance	binding (GFP-LC3A)	binding [1]	binding [2]	binding [3]	binding [4]	further results
GABARAP (for BLI) (from UniProt O95166 1-117)	–	binds	binds	binds	binds	–
MYC-SCOC (isoform 3) S18E (from UniProt Q9UIL1-3 1-121)	binds	–	–	–	–	–
GABARAPL2 (for BLI) (from UniProt P60520 1-117)	–	binds weakly	binds weakly	binds weakly	–	–
FIP200 (endogenous) (from UniProt Q8TDY2 1-1594)	–	–	–	–	–	binding (FEZ1-GFP): binds; binding [6]: no binding; binding [7]: binds
MYC-SCOC (isoform 3) S12E/T13E/T15E/S18E (from UniProt Q9UIL1-3 1-121)	binds	–	–	–	–	–
GFP-SCOC (isoform 3) wild-type, in vitro translated (from UniProt Q9UIL1-3 1-121)	–	–	–	–	–	binding (GST-GABARAPL2 (human)): binds weakly; binding (GST-LC3A (human)): binds; binding (GST-LC3C (human)): binds

Continued, in another order:

binding (GFP-LC3A)	binding [1]	binding [2]	binding [3]	binding [4]	Substance	further results
binds	–	–	–	–	MYC-SCOC (isoform 3) S12E/S18E (from UniProt Q9UIL1-3 1-121)	–
–	binds	–	binds	binds	LC3A (for BLI) (from UniProt Q9H492 1-121)	binding [5]: binds
binds	–	–	–	–	MYC-SCOC (isoform 3) WT (from UniProt Q9UIL1-3 1-121)	–
–	binds	binds	binds	binds	LC3C (for BLI) (from UniProt Q9BXW4 1-126)	binding [5]: binds
